Source: patent publication US12384969B2, “Enhancement of soil characteristics with lactobionate compounds” (Leprino Foods Company, priority 2017, dated 2025)

Legend:
[1] = Soil nitrate (NO3-) concentration in K2SO4 extracts, laboratory soil incubation
[2] = Gravimetric soil water content (GWC) / soil water retention versus water potential, laboratory soil incubation; conditions: two-month experimental period
[3] = Total soil organic carbon (SOC), laboratory soil incubation; conditions: for Increase in SOC: at 2 weeks, relative to control soils

N.O=C(O)[C@H](O)[C@@H](O)[C@H](O[C@@H]1O[C@H](CO)[C@H](O)[C@H](O)[C@H]1O)[C@H](O)CO [NH4-LB, ammonium lactobionate]
NO3− ([1]; Ak soil, HC, 1 mo): 0.96 ^E μg g-soil
NO3− ([1]; Ak soil, HC, 2 mo): 199.58 ^A μg g-soil
NO3− ([1]; Ak soil, HC, 2 wks): 0.91 ^C μg g-soil
NO3− ([1]; Ak soil, LC, 1 mo): 0.24 ^E μg g-soil
NO3− ([1]; Ak soil, LC, 2 mo): 154.19 ^AB μg g-soil
NO3− ([1]; Ak soil, LC, 2 wks): 1.27 ^C μg g-soil
NO3− ([1]; Fr soil, HC, 1 mo): 2.09 ^E μg g-soil
NO3− ([1]; Fr soil, HC, 2 mo): 46.87 ^B μg g-soil
NO3− ([1]; Fr soil, HC, 2 wks): 0.10 ^C μg g-soil
NO3− ([1]; Fr soil, LC, 1 mo): 0.02 ^E μg g-soil
NO3− ([1]; Fr soil, LC, 2 mo): 88.69 ^AB μg g-soil
NO3− ([1]; Fr soil, LC, 2 wks): 0.50 ^C μg g-soil
NO3− ([1]; at 2 months): 46-200 ppm

O=C([O-])[C@H](O)[C@@H](O)[C@H](O[C@@H]1O[C@H](CO)[C@H](O)[C@H](O)[C@H]1O)[C@H](O)CO.[K+] [K-LB, potassium lactobionate]
NO3− ([1]; Ak soil, HC, 1 mo): 0.13 ^E μg g-soil
NO3− ([1]; Ak soil, HC, 2 mo): 0.21 ^C μg g-soil
NO3− ([1]; Ak soil, HC, 2 wks): 0.17 ^C μg g-soil
NO3− ([1]; Ak soil, LC, 1 mo): 0.22 ^E μg g-soil
NO3− ([1]; Ak soil, LC, 2 mo): 0.09 ^C μg g-soil
NO3− ([1]; Ak soil, LC, 2 wks): 0.17 ^C μg g-soil
NO3− ([1]; Fr soil, HC, 1 mo): 0.24 ^E μg g-soil
NO3− ([1]; Fr soil, HC, 2 mo): 0.09 ^C μg g-soil
NO3− ([1]; Fr soil, HC, 2 wks): 0.04 ^C μg g-soil
NO3− ([1]; Fr soil, LC, 1 mo): 0.23 ^E μg g-soil
NO3− ([1]; Fr soil, LC, 2 mo): 0.08 ^C μg g-soil
NO3− ([1]; Fr soil, LC, 2 wks): 0.19 ^C μg g-soil
Increase of soil water content compared to unamended soils [2]: 1-6 times
Increase in SOC [3]: ~1.5 mg g-soil
Total SOC relative to control soils ([3]; at the end of the two-month period): doubled

O=C([O-])[C@H](O)[C@@H](O)[C@H](O[C@@H]1O[C@H](CO)[C@H](O)[C@H](O)[C@H]1O)[C@H](O)CO.O=C([O-])[C@H](O)[C@@H](O)[C@H](O[C@@H]1O[C@H](CO)[C@H](O)[C@H](O)[C@H]1O)[C@H](O)CO.[Ca+2] [Ca-LB, calcium lactobionate]
NO3− ([1]; Ak soil, HC, 1 mo): 0.12 ^E μg g-soil
NO3− ([1]; Ak soil, HC, 2 mo): 0.15 ^C μg g-soil
NO3− ([1]; Ak soil, HC, 2 wks): 0.22 ^C μg g-soil
NO3− ([1]; Ak soil, LC, 1 mo): 0.05 ^E μg g-soil
NO3− ([1]; Ak soil, LC, 2 mo): 2.24 ^C μg g-soil
NO3− ([1]; Ak soil, LC, 2 wks): 0.30 ^C μg g-soil
NO3− ([1]; Fr soil, HC, 1 mo): 0.05 ^E μg g-soil
NO3− ([1]; Fr soil, HC, 2 mo): 0.75 ^C μg g-soil
NO3− ([1]; Fr soil, HC, 2 wks): 0.29 ^C μg g-soil
NO3− ([1]; Fr soil, LC, 1 mo): 0.02 ^E μg g-soil
NO3− ([1]; Fr soil, LC, 2 mo): 0.74 ^C μg g-soil
NO3− ([1]; Fr soil, LC, 2 wks): 0.17 ^C μg g-soil
Increase in SOC [3]: ~1.5 mg g-soil
